Measured data: PubChem BioAssay AID1259405 (NCATS, 2018)

Aim: 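Knock-downs that lift recombinant protein yield in hamster ovary cells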 (primary screen)
Cell system: Chinese hamster CHO-K1 ovary cells with stable secreted eGFP expression
Reagent: single siRNA against mouse genes, 0.8 pmol siRNA per well (2 µl of 400 nM stock)
Timing: 3 days
Measured: 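Per-well intracellular GFP measured by laser scanning cytometry, plus viability from ATP luminescence, each relative to plate median of non-targeting control wells, in %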
Reading the numbers: GFP, % of control: higher = more GFP per well, higher productivity; viability (ATP), % of control: higher = more viable cells (more ATP)
Hit rule: 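a knock-down is called active if GFP reaches 120% or more of non-targeting control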
The deposit covers about 50,000 reagents; this is a part drawn at random. Over the whole deposit, about 4,000 (8%) got an active call. 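Mouse siRNA library applied to hamster cells; one well for each siRNA.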 Unmarked entries are inactive. The numbers tell different reagents against one gene apart. No sequences are given here.

Zfp553 #1
- GFP, % of control: 90.4
- viability (ATP), % of control: 69.5

Zfp553 #2
- GFP, % of control: 77
- viability (ATP), % of control: 78.3

Zfp553 #3
- GFP, % of control: 118
- viability (ATP), % of control: 82.3

Eml3 #1
- GFP, % of control: 65.9
- viability (ATP), % of control: 65.5

Eml3 #2
- GFP, % of control: 65.9
- viability (ATP), % of control: 78.6

Eml3 #3
- GFP, % of control: 84.4
- viability (ATP), % of control: 100

Hcfc1r1 #1
- GFP, % of control: 92
- viability (ATP), % of control: 102

Hcfc1r1 #2
- GFP, % of control: 92.5
- viability (ATP), % of control: 81.7

Hcfc1r1 #3
- GFP, % of control: 78.9
- viability (ATP), % of control: 78.3

Or2k2 #1
- GFP, % of control: 70.7
- viability (ATP), % of control: 18.8

Or2k2 #2
- GFP, % of control: 92.7
- viability (ATP), % of control: 64.1

Or2k2 #3
- GFP, % of control: 114
- viability (ATP), % of control: 71.8

Fen1 #1
- GFP, % of control: 90.9
- viability (ATP), % of control: 104

Fen1 #2
- GFP, % of control: 144 (active)
- viability (ATP), % of control: 126

Fen1 #3
- GFP, % of control: 57.3
- viability (ATP), % of control: 55.5

Gtf2a1l #1
- GFP, % of control: 82.7
- viability (ATP), % of control: 84.6

Gtf2a1l #2
- GFP, % of control: 68.8
- viability (ATP), % of control: 81.1

Plxnc1
- GFP, % of control: 75.3
- viability (ATP), % of control: 88

Or5aq1b #1
- GFP, % of control: 65.4
- viability (ATP), % of control: 35.2

Or5aq1b #2
- GFP, % of control: 49.2
- viability (ATP), % of control: 75.6

Or5aq1b #3
- GFP, % of control: 23.1
- viability (ATP), % of control: 34.2

Dgkq
- GFP, % of control: 77.5
- viability (ATP), % of control: 70.8

Nrg1 #1
- GFP, % of control: 103
- viability (ATP), % of control: 58.9

Nrg1 #2
- GFP, % of control: 72.3
- viability (ATP), % of control: 63.2

Nrg1 #3
- GFP, % of control: 79.2
- viability (ATP), % of control: 82.8

Eef2k
- GFP, % of control: 93.4
- viability (ATP), % of control: 71.8

Vmn1r218 #1
- GFP, % of control: 76.2
- viability (ATP), % of control: 69.2

Vmn1r218 #2
- GFP, % of control: 118
- viability (ATP), % of control: 112

Vmn1r218 #3
- GFP, % of control: 77.8
- viability (ATP), % of control: 90.8

Crnkl1 #1
- GFP, % of control: 89.6
- viability (ATP), % of control: 99.2

Crnkl1 #2
- GFP, % of control: 77.3
- viability (ATP), % of control: 63.3

Crnkl1 #3
- GFP, % of control: 47.7
- viability (ATP), % of control: 68.5

Gca #1
- GFP, % of control: 54.1
- viability (ATP), % of control: 82.2

Gca #2
- GFP, % of control: 81
- viability (ATP), % of control: 72.8

Iffo2 #1
- GFP, % of control: 98.2
- viability (ATP), % of control: 92

Iffo2 #2
- GFP, % of control: 73
- viability (ATP), % of control: 64.1

Iffo2 #3
- GFP, % of control: 95.3
- viability (ATP), % of control: 73.2

Orc4 #1
- GFP, % of control: 57.2
- viability (ATP), % of control: 43

Orc4 #2
- GFP, % of control: 82.9
- viability (ATP), % of control: 83.8

Sh3rf1 #1
- GFP, % of control: 82.1
- viability (ATP), % of control: 67.2

Sh3rf1 #2
- GFP, % of control: 86.9
- viability (ATP), % of control: 51.4

Sh3rf1 #3
- GFP, % of control: 76.9
- viability (ATP), % of control: 80.7
